According to patent publication US20170275629:
pKd: −log10 of the molar value. For some assays here: At least one result comes from cells or an extract, where the contact may be indirect. For some assays here: Negatives hold for the conditions tested. For some assays here: The exact form of at least one protein or probe is not confirmed.

The chains behind the UniProt entries cited, without tags or fusion partners. Residues count along the entry.
UniProt P16422, 24-314: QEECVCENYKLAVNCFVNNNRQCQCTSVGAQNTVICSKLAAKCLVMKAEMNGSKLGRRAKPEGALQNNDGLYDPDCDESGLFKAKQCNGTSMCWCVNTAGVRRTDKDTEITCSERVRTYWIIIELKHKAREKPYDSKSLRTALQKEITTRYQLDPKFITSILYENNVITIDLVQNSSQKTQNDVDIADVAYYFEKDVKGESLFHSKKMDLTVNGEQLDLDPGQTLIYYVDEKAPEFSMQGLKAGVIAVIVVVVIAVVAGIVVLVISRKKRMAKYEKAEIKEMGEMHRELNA
UniProt Q99JW5, 24-315: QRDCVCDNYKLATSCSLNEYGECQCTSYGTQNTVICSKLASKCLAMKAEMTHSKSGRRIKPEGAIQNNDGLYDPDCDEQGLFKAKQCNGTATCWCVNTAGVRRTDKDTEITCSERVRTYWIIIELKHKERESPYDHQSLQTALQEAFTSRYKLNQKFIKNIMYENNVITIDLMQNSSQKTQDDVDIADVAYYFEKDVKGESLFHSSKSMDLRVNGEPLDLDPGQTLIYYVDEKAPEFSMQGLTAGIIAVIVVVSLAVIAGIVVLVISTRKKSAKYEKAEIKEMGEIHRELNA

Legend:
[1] = biological target: EpCAM (CD326/ESA) (Homo sapiens) (UniProt P16422); test: binding assay; conditions: 2'-F pyrimidines; CITED Shigdar et al. 2011; label: 5'-Cy3 in uptake assays
[2] = biological target: EpCAM (ESA/mCD326) (Mus musculus) (UniProt Q99JW5); test: flow cytometry; conditions: 2'-F pyrimidines; not taken up by EpCAM-high mouse 4T1 cells nor by 67NR; protein on the cell surface; protein details: endogenous on 4T1 cells; label: 5'-Cy3 in uptake assays
[3] = biological target: EpCAM (CD326/ESA) (Homo sapiens) (UniProt P16422); test: activity in cells; conditions: 2'-F pyrimidines, 3'-dTdT, correlates with EpCAM level, protein on the cell surface, variant of EpCAM aptamer (19 nt), dose not given here
[4] = biological target: EpCAM (CD326/ESA) (Homo sapiens) (UniProt P16422); test: flow cytometry; conditions: 2'-F pyrimidines; 3'-dTdT; 24 h uptake by EpCAM+ BPLER and MB468, not by EpCAM- BPE; protein on the cell surface; label: Alexa647 or Cy3 at 3' end of antisense strand; variant of EpCAM aptamer (19 nt)

How did the pKd [1] turn out when “GCGACUGGUUACCCGGUCG [EpCAM aptamer (19 nt)]” was run?
Its pKd is 7.92.

Does “GCGACUGGUUACCCGGUCG [EpCAM aptamer (19 nt)]” bind [2]?
Result: no binding

With “GCGACUGGUUACCCGGUCGUUGCUGGAGAACCUCAUGCUGTT / CAGCAUGAGGUUCUCCAGCTT [AKT1 EpCAM-AsiC]” as the sequence, how does the “functional effect of the aptamer” value ([3]; AKT1 knockdown only in EpCAM-bright lines) read?
The value was “active”.

Does “GCGACUGGUUACCCGGUCGUUUGGCUACGUCCAGGAGCGCATT / UGCGCUCCUGGACGUAGCCTT [GFP EpCAM-AsiC]” bind [4]?
Result: binds

How did the “functional effect of the aptamer” value ([3]; reduced proliferation of EpCAM+ basal-A/luminal lines only) turn out when “GCGACUGGUUACCCGGUCGUUUUGAAGAAGAUCACCCUCCUUATT / UAAGGAGGGUGAUCUUCUUCATT [PLK1 EpCAM-AsiC]” was run?
Its value is “active”.
